These are yes or no findings as the source states them, for the method shown. In cells and extracts the contact can be indirect. Some binding calls cover weakened binding; strength is not graded here.
Biological target: T1, mouse Caprin1 (Cytoplasmic activation- and proliferation-associated protein 1) (mouse (endogenous in brain)) (UniProt Q60865)
T1 sequence: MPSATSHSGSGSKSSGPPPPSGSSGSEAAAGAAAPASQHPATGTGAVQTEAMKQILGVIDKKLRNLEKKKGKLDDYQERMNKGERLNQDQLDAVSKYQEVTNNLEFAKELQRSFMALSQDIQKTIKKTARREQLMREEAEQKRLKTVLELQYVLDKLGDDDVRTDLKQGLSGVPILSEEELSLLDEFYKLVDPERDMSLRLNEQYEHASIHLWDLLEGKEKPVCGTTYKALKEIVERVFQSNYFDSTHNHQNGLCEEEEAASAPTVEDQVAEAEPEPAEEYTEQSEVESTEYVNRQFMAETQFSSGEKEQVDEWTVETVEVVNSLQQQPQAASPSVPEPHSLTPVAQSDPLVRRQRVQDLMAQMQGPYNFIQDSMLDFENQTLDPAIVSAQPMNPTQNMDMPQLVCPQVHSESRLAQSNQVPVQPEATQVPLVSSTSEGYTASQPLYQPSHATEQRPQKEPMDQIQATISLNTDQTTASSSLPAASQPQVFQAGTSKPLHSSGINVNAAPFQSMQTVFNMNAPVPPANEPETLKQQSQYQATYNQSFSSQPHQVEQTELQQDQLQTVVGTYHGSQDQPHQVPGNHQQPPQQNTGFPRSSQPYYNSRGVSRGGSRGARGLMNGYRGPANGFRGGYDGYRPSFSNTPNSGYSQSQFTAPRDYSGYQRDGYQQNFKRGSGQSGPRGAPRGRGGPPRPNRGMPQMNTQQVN
Assay: co-IP; WT and KO mouse brain lysates immunoprecipitated with mAb7G1-1 (which binds Caprin1 and FMRP); two-colour immunoblot (Odyssey, LI-COR) with mAb7G1-1 and rabbit anti-Ago2

The chains behind the UniProt entries cited, without tags or fusion partners.
UniProt Q8CJG0: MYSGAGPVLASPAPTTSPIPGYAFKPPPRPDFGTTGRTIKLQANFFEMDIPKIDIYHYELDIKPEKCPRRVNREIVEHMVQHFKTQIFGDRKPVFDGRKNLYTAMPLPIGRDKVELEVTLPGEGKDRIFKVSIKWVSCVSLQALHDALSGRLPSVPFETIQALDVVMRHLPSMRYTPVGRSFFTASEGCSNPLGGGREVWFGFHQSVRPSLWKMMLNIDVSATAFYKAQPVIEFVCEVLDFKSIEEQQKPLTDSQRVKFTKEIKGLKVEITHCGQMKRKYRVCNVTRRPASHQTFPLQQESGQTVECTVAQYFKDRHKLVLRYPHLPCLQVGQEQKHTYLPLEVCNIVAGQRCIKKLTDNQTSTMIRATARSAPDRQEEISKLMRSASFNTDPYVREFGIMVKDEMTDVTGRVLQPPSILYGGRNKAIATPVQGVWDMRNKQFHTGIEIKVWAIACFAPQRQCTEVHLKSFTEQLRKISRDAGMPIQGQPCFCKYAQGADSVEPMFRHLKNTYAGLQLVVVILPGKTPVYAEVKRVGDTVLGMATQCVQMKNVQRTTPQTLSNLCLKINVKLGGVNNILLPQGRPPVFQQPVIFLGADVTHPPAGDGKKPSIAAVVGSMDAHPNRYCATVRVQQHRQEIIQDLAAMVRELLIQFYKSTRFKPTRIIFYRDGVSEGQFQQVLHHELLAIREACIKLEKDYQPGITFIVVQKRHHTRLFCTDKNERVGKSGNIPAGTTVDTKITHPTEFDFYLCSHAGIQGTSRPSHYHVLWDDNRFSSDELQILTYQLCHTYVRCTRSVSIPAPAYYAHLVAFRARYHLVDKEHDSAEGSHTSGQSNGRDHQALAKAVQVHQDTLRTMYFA

binding: binds
Substance: Ago2 (from UniProt Q8CJG0 1-860)
